Experimental data reported in PubChem BioAssay AID256 (DTP/NCI, 2004).
The list is a part of this screen's results and no random one: it is rich in T/C values a quarter to a half above the control, in often repeated tests (any T/C) and in doses without a T/C. Other doses and runs of a compound stand elsewhere. T/C is the treated group as % of the vehicle group. Some doses have a count of surviving animals in place of a T/C: the source holds a T/C of zero for them, seemingly a mark for toxic or unscored doses. Some survivor counts are full or nearly so, which does not show that the dose was tolerated: the source hardly ever lists a survival T/C far under the control, and the zero likely stands for such cases as well. Counts of survivors are from the toxicity check (mostly the fifth day) where no day follows; animals may have died later. Schedules are NCI's codes, read here as Q, the interval in days (D) or hours (H), X, the number of doses. Some entries were tested several times; their values stand side by side, smallest first. Where survival is the endpoint, this PubChem deposit counts one and a half times the control or more as active, and values a quarter to a half above the control carry no call in these data; other NCI protocols may use other cut-offs. Counts like (3×) count equal records among those shown. Some T/C values are followed by the survivors on the day toxicity was checked, most often the fifth; where none is given, no animal had died by that day.

Test system: CD2F1 mice, L1210 leukemia ip, survival T/C
Assay: NCI In Vivo Anticancer Drug Screen. Data for tumor model L1210 Leukemia (intraperitoneal) in CD2F1 (CDF1) mice
Conditions: higher T/C = longer survival
Procedure, shortened: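 In this screen, transplantable tumors were grown in mice given either the compound or its vehicle. Results were expressed as the treated measurement relative to the control measurement.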

`NCCCNCCCCNC(=O)C(O)NC(=O)CCCCCCN=C(N)N` (stereo not given) was tested, and the T/C (T/C endpoint: median survival time, dose: 0.19 mg/kg/injection, schedule: Q01DX009 (ip), vehicle: saline) was 146 % of control, the T/C (T/C endpoint: median survival time, dose: 0.39 mg/kg/injection, schedule: Q01DX005 (iv), vehicle: saline) was 139 % of control and the T/C (T/C endpoint: median survival time, dose: 0.39 mg/kg/injection, schedule: Q01DX009 (ip), vehicle: saline) was 140 % of control [5 of 6 alive]. The T/C (T/C endpoint: median survival time, dose: 0.78 mg/kg/injection, schedule: Q01DX005 (iv), vehicle: saline) was 148 % of control, the T/C (T/C endpoint: median survival time, dose: 0.78 mg/kg/injection, schedule: Q01DX009 (ip), vehicle: saline, evaluated on day 30) was 179, 190, 200, 207 % of control and the T/C (T/C endpoint: median survival time, dose: 0.78 mg/kg/injection, schedule: Q01DX009 (ip), vehicle: saline, evaluated on day 40) was 161 % of control. For the same compound, the T/C (T/C endpoint: median survival time, dose: 0.78 mg/kg/injection, schedule: Q01DX009 (ip), vehicle: saline, evaluated on day 60) was 213 % of control, the T/C (T/C endpoint: median survival time, dose: 1.56 mg/kg/injection, schedule: Q01DX009 (ip), vehicle: saline, evaluated on day 30) was 191, 195, 204, 224 % of control and the T/C (T/C endpoint: median survival time, dose: 1.56 mg/kg/injection, schedule: Q01DX009 (ip), vehicle: saline, evaluated on day 40) was 162 % of control. For the same compound, the T/C (T/C endpoint: median survival time, dose: 1.56 mg/kg/injection, schedule: Q01DX009 (ip), vehicle: saline, evaluated on day 60) was 219 % of control, the T/C (T/C endpoint: median survival time, dose: 3.12 mg/kg/injection, schedule: Q01DX009 (ip), vehicle: saline, evaluated on day 30) was 203, 206, 220, 229 % of control and the T/C (T/C endpoint: median survival time, dose: 3.12 mg/kg/injection, schedule: Q01DX009 (ip), vehicle: saline, evaluated on day 40) was 180 % of control [5 of 6 alive]. The T/C (T/C endpoint: median survival time, dose: 3.12 mg/kg/injection, schedule: Q01DX009 (ip), vehicle: saline, evaluated on day 60) was 223 % of control, the T/C (T/C endpoint: median survival time, dose: 6.25 mg/kg/injection, schedule: Q01DX009 (ip), vehicle: saline, evaluated on day 30) was 200, 212, 220, 228 % of control and the T/C (T/C endpoint: median survival time, dose: 6.25 mg/kg/injection, schedule: Q01DX009 (ip), vehicle: saline, evaluated on day 40) was 188 % of control. For the same compound, the T/C (T/C endpoint: median survival time, dose: 6.25 mg/kg/injection, schedule: Q01DX009 (ip), vehicle: saline, evaluated on day 60) was 225 % of control, the T/C (T/C endpoint: median survival time, dose: 6.7 mg/kg/injection, schedule: Q01DX009 (ip), vehicle: saline, evaluated on day 30) was 220 and 229 % of control and the T/C (T/C endpoint: median survival time, dose: 6.7 mg/kg/injection, schedule: Q01DX009 (ip), vehicle: saline, evaluated on day 45) was 233 and 235 % of control. The T/C (T/C endpoint: median survival time, dose: 7.88 mg/kg/injection, schedule: Q03HX008 (sc), vehicle: water) was 144 % of control, the survivor count (T/C endpoint: median survival time, dose: 10.0 mg/kg/injection, schedule: Q01DX005 (iv), vehicle: other) was 5 of 10 and the T/C (T/C endpoint: median survival time, dose: 10.0 mg/kg/injection, schedule: Q01DX009 (ip), vehicle: saline, evaluated on day 30) was 227 and 232 % of control. The T/C (T/C endpoint: median survival time, dose: 10.0 mg/kg/injection, schedule: Q01DX009 (ip), vehicle: saline, evaluated on day 45) was 230 and 240 % of control, the survivor count (T/C endpoint: median survival time, dose: 12.5 mg/kg/injection, schedule: Q01DX005 (iv), vehicle: saline) was 2 of 10 and the T/C (T/C endpoint: median survival time, dose: 12.5 mg/kg/injection, schedule: Q01DX009 (ip), vehicle: saline, evaluated on day 30) was 214, 228, 244, 247 % of control. For the same compound, the T/C (T/C endpoint: median survival time, dose: 12.5 mg/kg/injection, schedule: Q01DX009 (ip), vehicle: saline, evaluated on day 40) was 189 % of control, the T/C (T/C endpoint: median survival time, dose: 12.5 mg/kg/injection, schedule: Q01DX009 (ip), vehicle: saline, evaluated on day 60) was 250 % of control and the T/C (T/C endpoint: median survival time, dose: 15.0 mg/kg/injection, schedule: Q01DX009 (ip), vehicle: saline, evaluated on day 30) was 233 and 235 % of control. For the same compound, the T/C (T/C endpoint: median survival time, dose: 15.0 mg/kg/injection, schedule: Q01DX009 (ip), vehicle: saline, evaluated on day 45) was 241 % of control (2×), the T/C (T/C endpoint: median survival time, dose: 15.75 mg/kg/injection, schedule: Q03HX008 (sc), vehicle: water) was 144 % of control and the survivor count (T/C endpoint: median survival time, dose: 16.67 mg/kg/injection, schedule: Q01DX005 (iv), vehicle: other) was 0 of 10. For the same compound, the survivor count (T/C endpoint: median survival time, dose: 16.67 mg/kg/injection, schedule: Q01DX005 (iv), vehicle: saline) was 0 of 10, the T/C (T/C endpoint: median survival time, dose: 22.5 mg/kg/injection, schedule: Q01DX009 (ip), vehicle: saline, evaluated on day 30) was 239 and 245 % of control and the T/C (T/C endpoint: median survival time, dose: 22.5 mg/kg/injection, schedule: Q01DX009 (ip), vehicle: saline, evaluated on day 45) was 165 and 247 % of control. The survivor count (T/C endpoint: median survival time, dose: 25.0 mg/kg/injection, schedule: Q01DX005 (iv), vehicle: saline) was 0 of 10, the T/C (T/C endpoint: median survival time, dose: 25.0 mg/kg/injection, schedule: Q01DX009 (ip), vehicle: saline, evaluated on day 30) was 228, 231, 241, 265 % of control and the T/C (T/C endpoint: median survival time, dose: 25.0 mg/kg/injection, schedule: Q01DX009 (ip), vehicle: saline, evaluated on day 60) was 100 % of control [9 of 10 alive]. The survivor count (T/C endpoint: median survival time, dose: 45.0 mg/kg/injection, schedule: Q01DX005 (sc), vehicle: water) was 3 of 10 on day 7, the survivor count (T/C endpoint: median survival time, dose: 50.0 mg/kg/injection, schedule: Q01DX005 (iv), vehicle: saline) was 0 of 10 and the survivor count (T/C endpoint: median survival time, dose: 50.0 mg/kg/injection, schedule: Q01DX009 (ip), vehicle: saline) was 1 of 10. For the same compound, the survivor count (T/C endpoint: median survival time, dose: 63.0 mg/kg/injection, schedule: Q03HX008 (sc), vehicle: water) was 0 of 10.
With `C[n+]1c(-c2cccc(-c3ccccc3)c2)c2cc(N)ccc2c2ccccc21` the survivor count (T/C endpoint: mean survival time, dose: 12.5 mg/kg/injection, schedule: Q01DX009 (ip), vehicle: other) was 5 of 6 and 6 of 6, the survivor count (T/C endpoint: mean survival time, dose: 25.0 mg/kg/injection, schedule: Q01DX009 (ip), vehicle: other) was 1 of 6 and the survivor count (T/C endpoint: mean survival time, dose: 50.0 mg/kg/injection, schedule: Q01DX009 (ip), vehicle: other) was 0 of 6. For the same compound, the survivor count (T/C endpoint: mean survival time, dose: 100.0 mg/kg/injection, schedule: Q01DX009 (ip), vehicle: other) was 0 of 6.
`COC(=O)NC1C(C)OC(OC2C/C=C(/C)C3C=CC4C(OC5CC(OC6CCC(OC7CC(O)C(OC8CCC(O)C(C)O8)C(C)O7)C(C)O6)C(OC(C)=O)C(C)O5)C(C)CC(C)C4C3(C)/C(O)=C3/C(=O)OC4(CC(C=O)=CC(O)C4/C=C\2C)C3=O)CC1(C)[N+](=O)[O-]` (stereo not given) was tested, and the survivor count (T/C endpoint: median survival time, dose: 20.0 mg/kg/injection, schedule: Q01DX009 (ip), vehicle: water) was 1 of 6.
For `O=C1CC=C2C3CC4N(CCC45c4cc(O)c(O)cc4N1C25)C/C3=C\CBr` (stereo not given), the survivor count (T/C endpoint: mean survival time, dose: 150.0 mg/kg/injection, schedule: Q01DX001 (ip), vehicle: saline) was 2 of 6 and the survivor count (T/C endpoint: mean survival time, dose: 300.0 mg/kg/injection, schedule: Q01DX001 (ip), vehicle: saline) was 1 of 6.
`CCS(=O)(=O)Nc1ccc(Nc2c3ccccc3nc3ccccc23)c(OC)c1` was tested, and the T/C (T/C endpoint: mean survival time, dose: 1.25 mg/kg/injection, schedule: Q01DX009 (ip), vehicle: saline) was 133 % of control, the T/C (T/C endpoint: mean survival time, dose: 2.5 mg/kg/injection, schedule: Q01DX009 (ip), vehicle: saline) was 131 % of control and the T/C (T/C endpoint: mean survival time, dose: 10.0 mg/kg/injection, schedule: Q01DX009 (ip), vehicle: saline) was 137 % of control.
In the case of `COc1cc(CC#N)ccc1OCc1ccccc1`, the survivor count (T/C endpoint: mean survival time, dose: 100.0 mg/kg/injection, schedule: Q04DX003 (ip), vehicle: other) is reported as 0 of 6, the survivor count (T/C endpoint: mean survival time, dose: 200.0 mg/kg/injection, schedule: Q04DX003 (ip), vehicle: other) is reported as 1 of 6 and the survivor count (T/C endpoint: mean survival time, dose: 400.0 mg/kg/injection, schedule: Q04DX003 (ip), vehicle: other) is reported as 0 of 6.
For `CC(=O)CC(=O)C(F)(F)F.CC(=O)CC(=O)C(F)(F)F.[Ni]`, the survivor count (T/C endpoint: median survival time, dose: 100.0 mg/kg/injection, schedule: Q04DX002 (ip), vehicle: saline with Tween-80) was 1 of 3 and the survivor count (T/C endpoint: median survival time, dose: 200.0 mg/kg/injection, schedule: Q04DX002 (ip), vehicle: saline with Tween-80) was 0 of 3.
